US20130023033A1, “PHARMACOLOGICALLY INDUCED TRANSGENE ABLATION SYSTEM” (The Trustees of the University of Pennsylvania, priority 2010, published 2013)
At least one compound was matched to its structure with a doubt left.

What was measured:
[1] = test system: GFP-Luciferase driven by a promoter induced by the dimerized TF; test: In vivo model for a dimerizer-inducible system (Xenogen imaging of luciferase after rapamycin); set-up: species or system mouse; conditions: for tissue location of induced luciferase expression: 3×10^11 particles
Source text: Four groups of three mice received IV injection of AAV vectors encoding bicistronic reporter genes (GFP-Luciferase) at doses of 3×10^10, 1×10^11 and 3×10^11 particles of virus, respectively: Group 1 (G 1, G2, and G3) received AAV vectors expressing GFP Luciferase under the control of ubiquitous constitutive CMV promoter (see FIG. 16A for a diagram of the DNA construct). Group 2 (G4, G5, and G6) received co-injection of the following 2 AAV vectors: (1) AAV vector expressing a dimerizable transcription factor domain unit (FRB fused with p65 activation domain and DNA binding domain ZFHD fused with 3 copies of FKBP) driven by the CMV promoter (the DNA construct shown in FIG. 9B; and (2) AAV vector expressing GFP-Luciferase driven by a promoter induced by the dimerized TF (see FIG. 19C for a diagram of the DNA constructs). Group 3 (G7, G8, and G9) received AAV vector expressing GFP-Luciferase under the control of a liver constitutive promoter, TBG (see FIG. 16C for a diagram of the DNA construct). Group 4 (G10, G11, G12) received co-injection of the following 2 AAV vectors: (1) AAV vector expressing a dimerizable transcription factor domain unit (FRB fused with p65 activation domain and DNA binding domain ZFHD fused with 3 copies of FKBP) driven by the TBG promoter; and (2) AAV vector expressing GFP-Luciferase driven by a promoter induced by the dimerized TF (see FIG. 16D for a diagram of the DNA constructs).
About 2 weeks post virus administration, the mice were given IP injection of the dimerizer, rapamycin, at the dose of 2 mg/kg. Starting the next day the luciferase expression was monitored by Xenogen imaging analysis. Approximately 24 hours post rapamycin injection, the mice were IP injected with luciferin, the substrate for luciferase, then anesthetized for imaging.

[2] = test system: luciferase transgene expression in 293 cells; test: In vitro model for PITA: rapamycin-induced Cre ablation of loxP-flanked luciferase transgene; type: cell-based, human; conditions: rapamycin 50 nM; cells receiving loxP luciferase construct plus PITA controlled cre constructs (treatment 3, 4 and 5); 48 and 72 h post transfection

CO[C@H]1C[C@@H]2CC[C@@H](C)[C@@](O)(O2)C(=O)C(=O)N2CCCC[C@H]2C(=O)O[C@H]([C@H](C)C[C@@H]2CC[C@@H](O)[C@H](OC)C2)CC(=O)[C@H](C)/C=C(\C)[C@@H](O)[C@@H](OC)C(=O)[C@H](C)C[C@H](C)/C=C/C=C/C=C/1C [rapamycin] was tested, and the “tissue location of induced luciferase expression” value ([1]; Group 2 mice, rapamycin 2 mg/kg IP) was “predominantly in liver and muscle”, the “tissue location of induced luciferase expression” value ([1]; Group 4 mice, rapamycin 2 mg/kg IP) was “restricted in the liver” and the “duration of induced luciferase expression” value ([1]; dimerizer-inducible system, rapamycin 2 mg/kg IP, data not shown) was “back to close to baseline within a week”. For the same compound, the “dependence of luciferase expression on induction” value ([1]; liver-specific regulatable vectors (inducible TBG promoter system)) was “completely dependent upon induction by rapamycin”, the “peak level of induced luciferase expression versus constitutive promoter” value ([1]; liver-specific regulatable vectors (inducible TBG promoter system), after rapamycin) was “comparable to that under the control of TBG promoter” and the “level of reporter gene (luciferase) expression upon induction, compared to control (treatment 2)” value [2] was “significantly reduced”.
